Reference: PMC4873259
Results are given in words; binding and its absence hold for the method and conditions named. In cells and extracts the contact can be indirect. Some entries that bind do so weakly or less than the wild type. Sequences can lack the tags named with a protein.

T1: HA-RNF138 (human) (UniProt Q8WVD3)
T1 sequence: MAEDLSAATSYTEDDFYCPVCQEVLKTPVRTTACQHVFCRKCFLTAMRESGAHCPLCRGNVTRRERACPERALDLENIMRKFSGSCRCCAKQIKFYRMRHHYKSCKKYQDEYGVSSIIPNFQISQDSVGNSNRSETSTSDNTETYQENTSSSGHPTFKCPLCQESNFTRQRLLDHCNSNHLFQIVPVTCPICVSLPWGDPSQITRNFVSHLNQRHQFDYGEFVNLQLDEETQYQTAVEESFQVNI

T2: myc-RAD51D (human) (UniProt O75771)
T2 sequence: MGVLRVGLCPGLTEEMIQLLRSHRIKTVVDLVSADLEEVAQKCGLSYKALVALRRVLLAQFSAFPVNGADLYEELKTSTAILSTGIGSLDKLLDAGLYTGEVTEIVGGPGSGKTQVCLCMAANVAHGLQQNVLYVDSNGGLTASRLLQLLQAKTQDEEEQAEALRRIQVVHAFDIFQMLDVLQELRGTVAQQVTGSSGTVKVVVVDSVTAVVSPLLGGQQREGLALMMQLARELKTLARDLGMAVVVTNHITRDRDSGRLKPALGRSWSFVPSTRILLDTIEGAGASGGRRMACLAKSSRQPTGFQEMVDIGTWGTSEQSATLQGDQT


Columns and labels:
[1] = target: T1, HA-RNF138 (human); test: co-IP; HA-RNF138 and myc-RAD51D co-expressed in HEK293T; lysis in NETN buffer (0.5% NP40, 50 mM Tris-HCl pH 8.0, 100 mM NaCl, 2 mM EDTA); co-immunoprecipitation and reciprocal co-immunoprecipitation, western blot
[2] = target: T2, myc-RAD51D (human); test: as above

Row | binding [1] | binding [2] | Binder
1 | binds |  | myc-RAD51D (protein, UniProt O75771 1-328) MGVLRVGLCPGLTEEMIQLLRSHRIKTVVDLVSADLEEVAQKCGLSYKALVALRRVLLAQFSAFPVNGADLYEELKTSTAILSTGIGSLDKLLDAGLYTGEVTEIVGGPGSGKTQVCLCMAANVAHGLQQNVLYVDSNGGLTASRLLQLLQAKTQDEEEQAEALRRIQVVHAFDIFQMLDVLQELRGTVAQQVTGSSGTVKVVVVDSVTAVVSPLLGGQQREGLALMMQLARELKTLARDLGMAVVVTNHITRDRDSGRLKPALGRSWSFVPSTRILLDTIEGAGASGGRRMACLAKSSRQPTGFQEMVDIGTWGTSEQSATLQGDQT
2 |  | binds | HA-RNF138 (enzyme, UniProt Q8WVD3 1-245) MAEDLSAATSYTEDDFYCPVCQEVLKTPVRTTACQHVFCRKCFLTAMRESGAHCPLCRGNVTRRERACPERALDLENIMRKFSGSCRCCAKQIKFYRMRHHYKSCKKYQDEYGVSSIIPNFQISQDSVGNSNRSETSTSDNTETYQENTSSSGHPTFKCPLCQESNFTRQRLLDHCNSNHLFQIVPVTCPICVSLPWGDPSQITRNFVSHLNQRHQFDYGEFVNLQLDEETQYQTAVEESFQVNI
